Assay [1] deals with hCTLA-4 on CHO-K1/hCTLA-4 cells (human) (UniProt P16410). Put plainly: flow cytometry on cells; biotin-labelled peptides at 200 μM incubated with CHO-K1/hCTLA-4, CHO-K1/mCTLA-4 or CHO-K1 cells for 30 min at 4 °C, detected with SA-PE; only the binder purified.
The target of assay [2] is T1, hCTLA-4 protein (human, UniProt P16410 36-161).
T1 construct: human CTLA-4 protein, soluble recombinant protein; The MST methods speak of a 'Red-NHS647 dye-labelled protein' without naming it; also called human CTLA-4 protein
T1 sequence (looked up): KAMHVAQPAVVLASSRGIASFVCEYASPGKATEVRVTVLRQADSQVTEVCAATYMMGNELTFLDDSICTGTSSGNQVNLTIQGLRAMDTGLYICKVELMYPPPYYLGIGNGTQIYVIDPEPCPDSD
The experiment in a line: condition: peptides first diluted to 400 μmol/L, mixed with an equal volume of labelled protein; MST; Monolith NT.115; peptides first diluted to 400 μmol/L in MST buffer, 16 twofold dilutions; equal volumes of Red-NHS647 dye-labelled protein and peptide, room temperature 5 min, standard capillaries; both purified.

By UniProt entry, the sequences of proteins in these tests, tags left out. Residues count along the entry.
UniProt P09793, residues 36-223: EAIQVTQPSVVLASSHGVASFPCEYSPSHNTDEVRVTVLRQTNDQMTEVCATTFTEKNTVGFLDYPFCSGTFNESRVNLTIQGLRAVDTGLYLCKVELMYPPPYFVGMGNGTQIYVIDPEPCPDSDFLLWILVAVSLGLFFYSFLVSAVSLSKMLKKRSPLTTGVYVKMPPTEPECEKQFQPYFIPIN

For assay [3], the target named is mCTLA-4 on CHO-K1/mCTLA-4 cells (mouse) (UniProt P09793). The experiment in a line: flow cytometry on cells; biotin-labelled peptides at 200 μM incubated with CHO-K1/hCTLA-4, CHO-K1/mCTLA-4 or CHO-K1 cells for 30 min at 4 °C, detected with SA-PE; only the binder purified.

Results are given in words; binding and its absence hold for the method and conditions named. Some results given as binding are weak or reduced against the parent protein; the word gives no strength.

For RHHSSNPRDTAPGGGK (GGGK-biotin at carboxyl terminal) [LC8-biotin], the binding entry in assay [1] is reported as “binds”.

As for HHLRIPYALDQT [LC2], the binding entry in assay [2] was “no binding”.

On to WGHSHFSHWKGRGGGK (GGGK-biotin at carboxyl terminal) [LC4-biotin], for which the binding entry in assay [1] and in assay [3] was “binds” throughout.

Regarding RWKDTAYALTNN [LC1], the binding entry in assay [2] was “no binding”.

For SHRWQVWSRDRA [LC5], the binding result in assay [2] is reported as “no binding”.

For ASANDNRLRYTY [LC6], the binding result in assay [2] is “no binding”.

On to LDRPSSLAHLASGGGK (GGGK-biotin at carboxyl terminal) [LC7-biotin], for which, in assay [1], the binding result is on record as “binds”.

The values above are taken from paper PMC9532478, “A Novel CTLA-4 affinity peptide for cancer immunotherapy by increasing the integrin αvβ3 targeting” (Discover. Oncology, 2022).
